# Publication PMC6390509
# Amino acid sequences for entries named in this document (tags omitted).
# UniProt Q38876: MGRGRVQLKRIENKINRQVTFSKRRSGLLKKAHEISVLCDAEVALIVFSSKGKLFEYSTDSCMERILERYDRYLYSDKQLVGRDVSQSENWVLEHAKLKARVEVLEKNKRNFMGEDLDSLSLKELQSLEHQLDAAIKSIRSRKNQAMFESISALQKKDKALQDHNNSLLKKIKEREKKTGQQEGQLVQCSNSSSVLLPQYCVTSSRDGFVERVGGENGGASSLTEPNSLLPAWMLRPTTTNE
# These are yes or no findings as the source states them, for the method shown. Some binding calls cover weakened binding; strength is not graded here.
# Target: Arabidopsis FUL (Arabidopsis thaliana) (UniProt Q38876)
# Experiment: two-hybrid; Full-length proteins fused to the GAL4 binding domain or activation domain, all baits and preys screened against each other; after mating, diploid yeast grown for 5 days on SD medium lacking Leu, Trp and His with 5 mM 3-amino-1,2,4 triazole; EpMADS8, EpMADS21 and EpMADS22 only as prey (auto-activation)
substance,measurement,value
Arabidopsis FUL (from UniProt Q38876 1-242),binding,binds
